Results are given in words; binding and its absence hold for the method and conditions named.
Biological target: T1, Human prostate specific antigen (hPSA) peptide 53–59: RHSLFHP (human)
T1 sequence (peptide): RHSLFHP
Assay: magnetic particle enzyme immunoassay (MPEIA); RHSLFHP coupled by EDC to SPHERO carboxyl magnetic particles; biotinylated peptide in two-fold dilutions 1.09–70 µM, room temperature, 30 min, PBS-Tween 20 washes; detected with streptavidin-peroxidase polymer and OPD, absorbance at 450 nm; both purified

B1: N-terminal biotin peptide Biotin-EHFRW (peptide)
peptide: EHFRW
modifications: biotin on the N-terminus
binding: no binding

— PMC6540241, “Targeting Tumor Markers with Antisense Peptides: An Example of Human Prostate Specific Antigen” (International Journal of Molecular Sciences, 2019)
